Record: PubChem BioAssay AID652272 (Drosophila RNAi Screening Center, 2013)

Test: 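Finding fly genes that regulate Hedgehog signal transduction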 (primary screen)
Cell system: Drosophila clone 8 (Cl8) cells
Knock-down reagent: long dsRNA against Drosophila genes
Measurement: 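Plate reader light from a firefly reporter under a ptc promoter fragment that responds to Hedgehog, with Renilla light as transfection reference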
Direction: firefly Hh reporter signal: higher = more ptc reporter light; Renilla reference signal: higher = more Renilla control light
Call rule: 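Called a hit if the two-replicate mean z-score lies below -2 or above +3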
Meaning of the calls: active = hit: reporter lowered or raised; inactive = not a hit
In all, the deposit lists about 21,000 reagents; this is an unselected part of those with a known target gene and a result. Of all reagents, 503 (2.4%) are marked active. 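Raw plate light values, not normalised; calls rest on replicate z-scores that were not deposited; hits include reporter decreases as well as increases.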 A number with no mark means an inactive call. Reagents against one gene are numbered here. A plus sign joins genes that one reagent is predicted to hit. Not stated in the record: the amount of reagent, the time to read-out.

predicted target | reagent | firefly Hh reporter signal, replicate 1 | firefly Hh reporter signal, replicate 2 | firefly Hh reporter signal, replicate 3 | Renilla reference signal, replicate 1 | Renilla reference signal, replicate 2
dcma (decima) | 1 | 6.47e5 | 2.16e5 | – | 33381 | 10005
dcma (decima) | 2 | 1.11e5 | 1.03e5 | – | 2433 | 7476
CG42233 | 1 | 96135 | 2.38e5 | – | 3841 | 8539
CG42233 | 2 | 82054 | 2.09e5 | – | 2976 | 6710
Prosalpha4T2 (Proteasome alpha4 subunit, Testis-specific 2) | 1 | 68400 | 42361 | – | 1323 | 4272
tapas | 1 | 74516 | 59504 | – | 3472 | 2793
CG32444 | 1 | 91570 | 1.10e5 | – | 4401 | 4019
Sesn (Sestrin) | 1 | 1.31e5 | 83638 | – | 5556 | 3152
Sesn (Sestrin) | 2 | 97047 | 57430 | – | 1696 | 4841
Sesn (Sestrin) | 3 | 1.27e5 | 1.35e5 | – | 3056 | 8768
CG6321 | 1 | 1.22e5 | 88909 | – | 6378 | 3893
CG4582 | 1 | 4.51e5 | 1.01e5 | – | 23741 | 2829
CG7781 | 1 | 1.04e5 | 77290 | – | 2904 | 6073
CG8138 | 1 | 80864 | 76029 | – | 3090 | 2050
MFS10 (Major Facilitator Superfamily Transporter 10) | 1 | 95757 | 69285 | – | 2440 | 1825
CG14757 | 1 | 97936 | 55648 | – | 2245 | 4096
Taf7 (TBP-associated factor 7) | 1 | 68669 | 73965 | – | 2613 | 8096
PGS1 (Phosphatidylglycerophosphate synthase 1) | 1 | 7.82e5 | 1.34e5 | – | 37828 | 3708
CG14556 | 1 | 5.95e5 | 1.40e5 | – | 28693 | 4160
CG17650 | 1 | 96955 | 78419 | – | 2244 | 2023
rdhB (retinol dehydrogenase B) | 1 | 1.06e5 | 59540 | – | 4362 | 2339
Mics1 (Mitochondrial morphology and cristae structure 1) | 1 | 1.00e5 | 1.70e5 | – | 3236 | 5068
CG13532 | 1 | 1.25e5 | 91557 | – | 2781 | 8279
Cpr65Av (Cuticular protein 65Av) | 1 | 88448 | 87529 | – | 9555 | 6729
CRMP (Collapsin Response Mediator Protein) | 1 | 1.45e5 | – | – | 4224 | –
CRMP (Collapsin Response Mediator Protein) | 2 | 1.26e5 | 80331 | – | 4101 | 2957
BBS5 (Bardet-Biedl syndrome 5) | 1 | 72624 | 1.32e5 | – | 2364 | 3498
mirr (mirror) | 1 | 64935 | 34173 | 65269 | 3226 | 4786
CG12343 | 1 | 64554 | 31616 | – | 1832 | 2976
CG33017 | 1 | 63124 | 60720 | – | 1337 | 4306
CG33017 | 2 | 59952 | 48810 | – | 1421 | 3826
Arp10 (Actin-related protein 10) | 1 | 77130 | 53923 | – | 2052 | 1388
PIG-C (Phosphatidylinositol glycan anchor biosynthesis class C) | 1 | 54729 | 45462 | – | 1084 | 3297

Next part, starting with the last 8 of the part before.
predicted target | reagent | firefly Hh reporter signal, replicate 1 | firefly Hh reporter signal, replicate 2 | firefly Hh reporter signal, replicate 3 | Renilla reference signal, replicate 1 | Renilla reference signal, replicate 2
CRMP (Collapsin Response Mediator Protein) | 2 | 1.26e5 | 80331 | – | 4101 | 2957
BBS5 (Bardet-Biedl syndrome 5) | 1 | 72624 | 1.32e5 | – | 2364 | 3498
mirr (mirror) | 1 | 64935 | 34173 | 65269 | 3226 | 4786
CG12343 | 1 | 64554 | 31616 | – | 1832 | 2976
CG33017 | 1 | 63124 | 60720 | – | 1337 | 4306
CG33017 | 2 | 59952 | 48810 | – | 1421 | 3826
Arp10 (Actin-related protein 10) | 1 | 77130 | 53923 | – | 2052 | 1388
PIG-C (Phosphatidylinositol glycan anchor biosynthesis class C) | 1 | 54729 | 45462 | – | 1084 | 3297
HIPP1 (HP1 and insulator partner protein 1) | 1 | 54540 | 45110 | – | 2658 | 1984
ND-MNLL (NADH dehydrogenase (ubiquinone) MNLL subunit) | 1 | 60939 | 1.80e5 | – | 2413 | 9408
eIF2gamma + Su(var)3-9 | 1 | 30209 | 1.77e5 | – | 5319 | 4154
eIF2gamma + Su(var)3-9 | 2 | 1.21e5 | 84784 | – | 4664 | 3348
Cpr76Bb (Cuticular protein 76Bb) | 1 | 1.66e5 | 1.53e5 | – | 5489 | 4315
Paics (PAICS bifunctional enzyme) | 1 | 1.00e5 | 85524 | – | 2265 | 1888
CG7369 | 1 | 1.34e5 | 4.79e5 | 1.22e5 | 5136 | 26925
Ugt36F1 (UDP-glycosyltransferase family 36 member F1) | 1 | 83365 | 57047 | – | 2038 | 5140
hdly (hadley) | 1 | 6.27e5 | 1.10e5 | – | 32299 | 3026
CG2145 | 1 | 91512 | 68279 | – | 1985 | 1612
hh (hedgehog) | 1 | 5.67e5 | 1.00e5 | – | 37602 | 4008
CG12828 | 1 | 98550 | 60506 | – | 2553 | 4368
CR31700 (pseudo) | 1 | 1.58e5 | 2.87e5 | – | 4359 | 12820
CG6126 | 1 | 95606 | 1.07e5 | – | 4073 | 4592
CG31910 + snoRNA:Me28S-G2743 (retired record) | 1 | 4.75e5 | 1.76e5 | – | 23252 | 7024
CG5776 | 1 | 71019 | 73561 | – | 3344 | 2816
CG32374 | 1 | 76611 | 58528 | – | 6422 | 4306
Drl-2 (Derailed 2) | 1 | 1.28e5 | 1.99e5 | – | 3632 | 8144
Drl-2 (Derailed 2) | 2 | 1.11e5 | 63688 | – | 2765 | 5000
Drl-2 (Derailed 2) | 3 | 1.11e5 | 68165 | – | 2701 | 5608
Pitslre | 1 | 56512 (active) | 42667 | – | 3764 | 2755
CHKov2 (CHK domain ov2) | 1 | 80720 | 1.17e5 | – | 1229 | 2877
CG10927 | 1 | 1.22e5 | 1.12e5 | – | 4993 | 4483
Cerk (Ceramide kinase) | 1 | 1.15e5 | 1.19e5 | – | 4528 | 4390
CG13407 | 1 | 6.84e5 | 1.75e5 | – | 31664 | 3843
SLIRP1 + anox | 1 | 1.30e5 | 1.21e5 | – | 3115 | 3090
CG13272 | 1 | 1.11e5 | 59270 | – | 2843 | 5376
slp1 (sloppy paired 1) | 1 | 85464 | 88163 | – | 3616 | 4000
CG4194 | 1 | 1.55e5 | 75469 | – | 2628 | 2995
CG3277 | 1 | 1.10e5 | 64548 | – | 3081 | 6789
CG5693 | 1 | 1.15e5 | 50169 | – | 2432 | 4116
CG14631 | 1 | 97309 | 2.99e5 | – | 2649 | 11851
CG14631 | 2 | 64258 | 2.67e5 | – | 1803 | 10876
CG9631 | 1 | 89084 | 93306 | – | 3762 | 3405
CkIIalpha-i3 (CKII-alpha subunit interactor-3) | 1 | 1.51e5 | 58714 | – | 6534 | 3168
htl (heartless) | 1 | 1.33e5 | 54496 | – | 5344 | 2180
CG32486 | 1 | 62636 | 53245 | – | 3721 | 2528
CG32486 | 2 | 56320 | 53040 | – | 2592 | 3949
stumps | 1 | 46872 | 1.79e5 | – | 9881 | 3794
stumps | 2 | 55767 | 56256 | – | 1629 | 1744
stumps | 3 | 90368 | 1.16e5 | – | 4391 | 4152
